Measured values published in the supplement of paper PMC10849652.
The other results are listed elsewhere or left out.

Amino acid sequences for entries named in this document (tags omitted). A change or cut given only in a name is not applied to a line headed by its entry.
UniProt Q9Y5T5, whole entry, looked up: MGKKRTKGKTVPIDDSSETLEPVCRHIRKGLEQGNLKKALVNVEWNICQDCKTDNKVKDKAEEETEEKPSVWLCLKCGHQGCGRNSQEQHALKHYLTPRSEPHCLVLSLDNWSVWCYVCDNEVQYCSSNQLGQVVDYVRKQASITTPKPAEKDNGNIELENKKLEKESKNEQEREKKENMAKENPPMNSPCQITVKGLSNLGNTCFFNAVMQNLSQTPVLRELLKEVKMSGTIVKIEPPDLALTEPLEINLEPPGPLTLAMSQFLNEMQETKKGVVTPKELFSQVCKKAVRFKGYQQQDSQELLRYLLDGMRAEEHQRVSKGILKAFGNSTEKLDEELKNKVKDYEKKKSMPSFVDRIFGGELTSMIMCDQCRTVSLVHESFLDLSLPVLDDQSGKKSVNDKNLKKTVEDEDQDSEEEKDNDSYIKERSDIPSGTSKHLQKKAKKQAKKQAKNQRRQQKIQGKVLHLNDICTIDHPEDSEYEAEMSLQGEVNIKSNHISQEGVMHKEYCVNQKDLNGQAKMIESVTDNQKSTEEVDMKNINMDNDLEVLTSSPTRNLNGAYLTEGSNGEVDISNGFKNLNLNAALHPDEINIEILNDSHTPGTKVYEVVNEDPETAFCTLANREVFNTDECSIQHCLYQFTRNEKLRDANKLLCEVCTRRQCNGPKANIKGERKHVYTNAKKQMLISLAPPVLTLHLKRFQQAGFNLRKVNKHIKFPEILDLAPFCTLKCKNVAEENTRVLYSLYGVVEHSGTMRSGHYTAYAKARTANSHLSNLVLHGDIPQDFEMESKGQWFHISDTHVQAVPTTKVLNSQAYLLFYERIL
UniProt O94763, whole entry, looked up: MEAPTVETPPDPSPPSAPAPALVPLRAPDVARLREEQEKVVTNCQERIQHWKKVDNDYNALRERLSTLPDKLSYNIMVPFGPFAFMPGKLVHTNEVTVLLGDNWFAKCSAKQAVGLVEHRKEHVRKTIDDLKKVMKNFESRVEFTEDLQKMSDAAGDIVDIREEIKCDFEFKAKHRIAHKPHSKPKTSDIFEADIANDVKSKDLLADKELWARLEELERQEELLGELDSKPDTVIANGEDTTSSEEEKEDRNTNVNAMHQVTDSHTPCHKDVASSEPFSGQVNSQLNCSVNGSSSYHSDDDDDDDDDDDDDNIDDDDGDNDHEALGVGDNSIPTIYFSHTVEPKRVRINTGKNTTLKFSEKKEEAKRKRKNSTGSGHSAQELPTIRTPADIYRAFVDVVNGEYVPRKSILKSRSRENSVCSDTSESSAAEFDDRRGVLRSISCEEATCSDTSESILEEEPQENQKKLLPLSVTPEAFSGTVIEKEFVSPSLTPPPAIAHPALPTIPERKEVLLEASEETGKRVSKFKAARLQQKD
UniProt O75385: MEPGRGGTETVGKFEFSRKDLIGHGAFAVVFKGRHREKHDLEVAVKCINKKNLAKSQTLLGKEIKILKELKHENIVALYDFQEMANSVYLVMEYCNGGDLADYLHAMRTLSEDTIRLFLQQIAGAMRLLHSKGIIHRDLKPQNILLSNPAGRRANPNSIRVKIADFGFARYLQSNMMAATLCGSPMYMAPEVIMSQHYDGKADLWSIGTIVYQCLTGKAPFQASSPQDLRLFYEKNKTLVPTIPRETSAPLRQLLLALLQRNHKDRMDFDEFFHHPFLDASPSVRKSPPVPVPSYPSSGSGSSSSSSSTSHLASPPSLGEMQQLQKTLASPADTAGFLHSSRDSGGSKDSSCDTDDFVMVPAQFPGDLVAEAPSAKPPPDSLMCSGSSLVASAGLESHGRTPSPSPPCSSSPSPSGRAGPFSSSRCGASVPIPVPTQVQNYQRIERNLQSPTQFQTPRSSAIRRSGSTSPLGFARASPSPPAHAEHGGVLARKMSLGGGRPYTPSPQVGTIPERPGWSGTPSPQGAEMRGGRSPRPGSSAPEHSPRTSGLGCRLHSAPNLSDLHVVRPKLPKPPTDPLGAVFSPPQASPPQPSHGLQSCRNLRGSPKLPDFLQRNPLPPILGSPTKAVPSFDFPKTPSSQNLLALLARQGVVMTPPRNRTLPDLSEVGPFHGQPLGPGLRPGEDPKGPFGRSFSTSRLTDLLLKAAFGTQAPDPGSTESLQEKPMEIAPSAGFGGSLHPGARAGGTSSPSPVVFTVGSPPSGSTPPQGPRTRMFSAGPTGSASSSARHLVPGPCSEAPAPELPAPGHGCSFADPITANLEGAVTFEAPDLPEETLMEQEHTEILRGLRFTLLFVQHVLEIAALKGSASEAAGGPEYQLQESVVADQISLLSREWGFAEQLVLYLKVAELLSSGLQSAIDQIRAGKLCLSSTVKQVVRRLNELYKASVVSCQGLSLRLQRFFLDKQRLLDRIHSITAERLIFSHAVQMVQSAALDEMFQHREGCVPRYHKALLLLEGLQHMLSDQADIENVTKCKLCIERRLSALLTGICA
UniProt P21796, whole entry, looked up: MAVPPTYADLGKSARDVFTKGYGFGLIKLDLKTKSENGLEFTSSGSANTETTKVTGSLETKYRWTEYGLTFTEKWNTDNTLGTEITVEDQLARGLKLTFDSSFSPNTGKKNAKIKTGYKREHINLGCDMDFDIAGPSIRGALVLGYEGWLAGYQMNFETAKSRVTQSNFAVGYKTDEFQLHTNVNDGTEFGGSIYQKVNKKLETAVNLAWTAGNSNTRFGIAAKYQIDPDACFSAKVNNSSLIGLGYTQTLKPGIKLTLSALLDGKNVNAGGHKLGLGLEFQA
UniProt O94782: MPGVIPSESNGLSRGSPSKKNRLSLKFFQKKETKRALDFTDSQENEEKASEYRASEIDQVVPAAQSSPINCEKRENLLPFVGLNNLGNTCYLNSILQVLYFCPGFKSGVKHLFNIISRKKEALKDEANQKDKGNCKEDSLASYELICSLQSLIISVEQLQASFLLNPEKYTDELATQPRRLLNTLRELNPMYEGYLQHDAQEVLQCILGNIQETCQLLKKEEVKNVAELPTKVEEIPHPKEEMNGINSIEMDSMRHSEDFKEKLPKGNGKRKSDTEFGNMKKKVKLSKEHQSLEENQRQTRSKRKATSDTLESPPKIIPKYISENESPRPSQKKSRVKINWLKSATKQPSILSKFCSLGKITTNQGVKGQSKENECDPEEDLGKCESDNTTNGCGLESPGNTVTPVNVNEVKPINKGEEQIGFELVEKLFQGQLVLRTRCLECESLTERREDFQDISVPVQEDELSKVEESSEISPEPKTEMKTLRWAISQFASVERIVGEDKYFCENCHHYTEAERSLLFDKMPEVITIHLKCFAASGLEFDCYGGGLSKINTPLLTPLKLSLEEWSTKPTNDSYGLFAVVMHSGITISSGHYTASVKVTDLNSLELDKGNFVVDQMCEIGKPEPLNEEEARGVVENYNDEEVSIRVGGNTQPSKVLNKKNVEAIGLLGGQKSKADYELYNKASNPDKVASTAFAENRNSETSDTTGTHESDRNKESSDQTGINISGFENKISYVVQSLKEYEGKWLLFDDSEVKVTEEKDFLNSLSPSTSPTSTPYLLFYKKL
UniProt Q9ULK5: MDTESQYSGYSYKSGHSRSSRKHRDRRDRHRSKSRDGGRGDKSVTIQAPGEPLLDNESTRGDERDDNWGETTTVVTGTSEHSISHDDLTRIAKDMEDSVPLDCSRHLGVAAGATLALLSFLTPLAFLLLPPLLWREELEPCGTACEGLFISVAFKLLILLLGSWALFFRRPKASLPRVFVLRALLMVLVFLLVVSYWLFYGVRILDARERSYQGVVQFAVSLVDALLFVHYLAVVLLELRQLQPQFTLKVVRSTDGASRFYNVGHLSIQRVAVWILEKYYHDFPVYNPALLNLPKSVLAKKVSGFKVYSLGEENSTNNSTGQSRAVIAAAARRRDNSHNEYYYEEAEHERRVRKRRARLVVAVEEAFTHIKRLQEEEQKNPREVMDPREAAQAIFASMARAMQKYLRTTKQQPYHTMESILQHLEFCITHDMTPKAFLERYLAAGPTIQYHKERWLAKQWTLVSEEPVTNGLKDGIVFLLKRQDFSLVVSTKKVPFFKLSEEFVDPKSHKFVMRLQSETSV
UniProt Q14146: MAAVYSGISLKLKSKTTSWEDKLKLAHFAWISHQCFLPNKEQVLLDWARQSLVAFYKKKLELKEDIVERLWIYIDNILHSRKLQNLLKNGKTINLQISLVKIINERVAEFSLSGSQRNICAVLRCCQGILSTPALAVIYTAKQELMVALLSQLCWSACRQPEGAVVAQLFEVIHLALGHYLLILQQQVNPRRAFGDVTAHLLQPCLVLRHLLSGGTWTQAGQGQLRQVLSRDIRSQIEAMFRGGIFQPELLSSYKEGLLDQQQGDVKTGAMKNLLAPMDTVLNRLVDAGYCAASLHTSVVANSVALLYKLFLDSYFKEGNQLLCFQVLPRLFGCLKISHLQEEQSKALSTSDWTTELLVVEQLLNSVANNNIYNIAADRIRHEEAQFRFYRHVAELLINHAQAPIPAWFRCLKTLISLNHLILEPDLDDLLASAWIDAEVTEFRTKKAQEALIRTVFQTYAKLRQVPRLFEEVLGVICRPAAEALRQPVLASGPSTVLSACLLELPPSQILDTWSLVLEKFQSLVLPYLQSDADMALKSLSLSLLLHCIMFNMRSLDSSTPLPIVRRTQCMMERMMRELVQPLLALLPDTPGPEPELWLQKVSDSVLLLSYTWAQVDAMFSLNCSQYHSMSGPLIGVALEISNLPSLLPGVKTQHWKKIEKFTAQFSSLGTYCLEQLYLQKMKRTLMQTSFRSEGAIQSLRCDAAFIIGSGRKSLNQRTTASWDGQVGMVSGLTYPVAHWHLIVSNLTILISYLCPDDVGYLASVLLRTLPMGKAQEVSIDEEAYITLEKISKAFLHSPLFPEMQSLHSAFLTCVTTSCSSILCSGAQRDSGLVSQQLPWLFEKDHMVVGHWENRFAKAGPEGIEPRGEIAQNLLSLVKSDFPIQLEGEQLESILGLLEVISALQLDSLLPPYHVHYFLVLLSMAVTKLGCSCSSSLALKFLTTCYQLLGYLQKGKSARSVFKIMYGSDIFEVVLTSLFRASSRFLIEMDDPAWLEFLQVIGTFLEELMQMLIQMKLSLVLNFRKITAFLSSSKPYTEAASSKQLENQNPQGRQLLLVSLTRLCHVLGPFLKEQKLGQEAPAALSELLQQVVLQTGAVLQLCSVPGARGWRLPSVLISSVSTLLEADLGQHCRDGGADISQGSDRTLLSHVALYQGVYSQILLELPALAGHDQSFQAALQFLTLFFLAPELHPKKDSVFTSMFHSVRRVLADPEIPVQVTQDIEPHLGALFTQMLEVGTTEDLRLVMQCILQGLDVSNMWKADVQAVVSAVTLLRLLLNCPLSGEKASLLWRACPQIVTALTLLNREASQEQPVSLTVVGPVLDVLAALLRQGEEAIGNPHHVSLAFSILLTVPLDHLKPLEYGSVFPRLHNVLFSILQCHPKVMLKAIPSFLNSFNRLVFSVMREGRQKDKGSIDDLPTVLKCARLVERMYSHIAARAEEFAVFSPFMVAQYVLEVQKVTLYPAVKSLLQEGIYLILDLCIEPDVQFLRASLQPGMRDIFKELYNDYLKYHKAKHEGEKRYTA
UniProt Q70CQ3: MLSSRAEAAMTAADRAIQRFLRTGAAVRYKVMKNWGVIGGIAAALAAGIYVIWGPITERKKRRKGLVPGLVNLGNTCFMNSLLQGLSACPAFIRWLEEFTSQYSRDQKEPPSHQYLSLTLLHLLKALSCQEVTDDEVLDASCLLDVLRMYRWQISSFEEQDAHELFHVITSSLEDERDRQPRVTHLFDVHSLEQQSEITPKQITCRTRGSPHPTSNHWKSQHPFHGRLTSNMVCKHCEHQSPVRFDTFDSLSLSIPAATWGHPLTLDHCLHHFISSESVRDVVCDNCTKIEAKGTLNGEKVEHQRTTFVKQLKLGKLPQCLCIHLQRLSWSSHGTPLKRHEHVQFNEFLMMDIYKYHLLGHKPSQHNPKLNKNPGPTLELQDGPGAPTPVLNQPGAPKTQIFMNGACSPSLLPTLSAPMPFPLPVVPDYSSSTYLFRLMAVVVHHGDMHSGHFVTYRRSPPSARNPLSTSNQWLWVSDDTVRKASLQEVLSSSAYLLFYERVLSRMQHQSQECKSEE
UniProt Q9UPT9: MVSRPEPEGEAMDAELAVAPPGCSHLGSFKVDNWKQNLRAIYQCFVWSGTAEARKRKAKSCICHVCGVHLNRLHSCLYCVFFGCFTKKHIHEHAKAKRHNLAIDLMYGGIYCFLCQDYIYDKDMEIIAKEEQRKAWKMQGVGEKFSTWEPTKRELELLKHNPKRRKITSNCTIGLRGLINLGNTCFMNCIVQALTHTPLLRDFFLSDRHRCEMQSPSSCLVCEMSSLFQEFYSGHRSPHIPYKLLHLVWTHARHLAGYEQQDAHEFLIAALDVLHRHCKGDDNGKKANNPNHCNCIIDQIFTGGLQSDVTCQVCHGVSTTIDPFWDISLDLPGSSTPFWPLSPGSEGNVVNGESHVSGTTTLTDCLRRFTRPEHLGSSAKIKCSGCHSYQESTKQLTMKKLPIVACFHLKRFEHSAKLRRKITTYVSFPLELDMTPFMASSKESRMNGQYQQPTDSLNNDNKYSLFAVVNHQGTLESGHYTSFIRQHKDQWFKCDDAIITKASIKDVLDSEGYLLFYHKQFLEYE

Legend:
Test in all cases: log2 fold change, soluble protein after heating vs DMSO (PISA); higher = thermal stabilisation; K562 lysate, 10 uM; active = over 0.2 and 3.5 SD of the protein, either way, in both replicates (recomputed)
alvocidib = compound: CN1CC[C@H](c2c(O)cc(O)c3c(=O)cc(-c4ccccc4Cl)oc23)[C@H](O)C1 [alvocidib]
In short: (§1)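 Quantification was by TMTpro 16plex LC-MS/MS with equalised channel sums, applied to the supernatant after 21,000xg for 90 min. Samples were crude K562 extract at 1 mg/mL protein in PBS pH 7.4 with 1 mM MgCl2, treated with 10 μM compound for 30 min, heated for 3 min across 48°C-58°C, pooled and brought to 0.5% NP-40 at 4°C. Values are log-two fold changes in thermal stability relative to solvent controls, from duplicates.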

Tubastatin A = compound: CN1CCc2c(c3ccccc3n2Cc2ccc(C(=O)NO)cc2)C1 [Tubastatin A]
In short: as §1

[1] = compound: CNC(=O)C1=CC=CC=C1NC2=NC(=NC=C2Cl)NC3=C(C=C(C=C3)N4CCOCC4)OC
In short: as §1

defactinib = compound: CNC(=O)c1ccc(Nc2ncc(C(F)(F)F)c(NCc3nccnc3N(C)S(C)(=O)=O)n2)cc1 [defactinib]
In short: as §1

[2] = compound: CNc1nc(-c2ccc3c(N)n[nH]c3c2)cc(N2C[C@@H](C(=O)NC3CCCCC3)CC[C@H]2C)n1
In short: as §1

encorafenib = compound: COC(=O)N[C@@H](C)CNc1nccc(-c2cn(C(C)C)nc2-c2cc(Cl)cc(NS(C)(=O)=O)c2F)n1 [encorafenib]
In short: as §1

[3] = compound: COC(=O)[C@H](CCSC)NC(=O)C1=C(C=C(C=C1)NC[C@H](CS)N)C2=CC=CC=C2
In short: as §1

alisertib = compound: COc1cc(Nc2ncc3c(n2)-c2ccc(Cl)cc2C(c2c(F)cccc2OC)=NC3)ccc1C(=O)O [alisertib]
In short: as §1

[4] = compound: COc1cc2nc(-c3cc(F)ccc3O)nc(N[C@@H]3CNC[C@H]3C(C)(C)O)c2cc1OC
In short: as §1

gefitinib = compound: COc1cc2ncnc(Nc3ccc(F)c(Cl)c3)c2cc1OCCCN1CCOCC1 [gefitinib]
In short: as §1

Measured: log2 fold change

USP16 (UniProt Q9Y5T5)
inactive: alvocidib 0.004 | Tubastatin A -0.118 | [1] -0.011 | defactinib 0.035 | [2] 0.008 | encorafenib 0.059 | [3] 0.081 | alisertib -0.011 | [4] -0.003 | gefitinib -0.013

UFL1 (UniProt O94874)
inactive: alvocidib 0.011 | Tubastatin A 0.025 | [1] -0.017 | defactinib 0.023 | [2] -0.05 | encorafenib 0.023 | [3] 0.078 | alisertib 0.005 | [4] 0.026 | gefitinib 0

VEZF1 (UniProt Q14119)
inactive: alvocidib -0.056 | Tubastatin A -0.073 | [1] 0.091 | defactinib -0.057 | [2] -0.062 | encorafenib -0.045 | [3] -0.02 | alisertib 0.048 | [4] 0.002 | gefitinib 0.06

USB1 (UniProt Q9BQ65)
inactive: alvocidib 0.02 | Tubastatin A -0.115 | [1] 0.079 | defactinib -0.021 | [2] -0.064 | encorafenib 0.041 | [3] 0.301 | alisertib -0.095 | [4] 0 | gefitinib -0.014

VIM (UniProt P08670)
inactive: alvocidib 0.045 | Tubastatin A 0.026 | [1] -0.001 | defactinib -0.014 | [2] -0.033 | encorafenib 0.005 | [3] -0.117 | alisertib -0.011 | [4] 0.015 | gefitinib 0.004

UHRF1BP1L (UniProt A0JNW5)
inactive: alvocidib -0.009 | Tubastatin A -0.028 | [1] 0.016 | defactinib 0.009 | [2] 0.015 | encorafenib 0.091 | [3] -0.054 | alisertib 0.012 | [4] 0.041 | gefitinib 0.025

USP8 (UniProt P40818)
inactive: alvocidib 0.023 | Tubastatin A -0.018 | [1] 0.014 | defactinib 0.02 | [2] 0.005 | encorafenib 0.004 | [3] 0.102 | alisertib -0.011 | [4] 0.002 | gefitinib 0.015

USP11 (UniProt P51784)
inactive: alvocidib -0.007 | Tubastatin A -0.129 | [1] -0.013 | defactinib -0.008 | [2] -0.03 | encorafenib 0.023 | [3] 0.09 | alisertib -0.019 | [4] -0.007 | gefitinib 0.034

USP39 (UniProt Q53GS9)
inactive: alvocidib -0.012 | Tubastatin A -0.012 | [1] -0.019 | defactinib -0.021 | [2] -0.03 | encorafenib 0.008 | [3] -0.09 | alisertib 0.009 | [4] -0.02 | gefitinib 0.016

VARS (UniProt P26640)
inactive: alvocidib -0.003 | Tubastatin A -0.086 | [1] 0.002 | defactinib 0.025 | [2] -0.008 | encorafenib -0.008 | [3] 0.16 | alisertib -0.02 | [4] 0.003 | gefitinib -0.006

VCX3B (UniProt Q9H321)
inactive: alvocidib -0.038 | Tubastatin A 0.015 | [1] -0.037 | [2] -0.009 | encorafenib 0.034 | [3] 0.126 | alisertib -0.059 | [4] 0 | gefitinib -0.057

UQCRC2 (UniProt P22695)
inactive: alvocidib -0.005 | Tubastatin A 0.035 | [1] -0.013 | defactinib 0.014 | [2] 0.01 | encorafenib -0.001 | [3] -0.013 | alisertib 0.022 | [4] 0.024 | gefitinib -0.013

VDAC3 (UniProt Q9Y277)
inactive: alvocidib -0.018 | Tubastatin A 0.048 | [1] 0.04 | defactinib -0.022 | [2] 0.05 | encorafenib -0.018 | [3] -0.011 | alisertib 0.001 | [4] -0.005 | gefitinib -0.005

URI1 isoform 4 (UniProt O94763)
inactive: alvocidib 0.051 | Tubastatin A -0.008 | [1] 0.025 | [2] 0.07 | encorafenib 0.03 | [3] 0.156 | alisertib -0.071 | [4] -0.026 | gefitinib 0.099

ULK1 (UniProt O75385)
inactive: alvocidib -0.086 | Tubastatin A -0.089 | [1] 0.021 | defactinib -0.024 | [2] -0.125 | encorafenib 0.039 | [3] 0.066 | [4] -0.215

VAV3 isoform 4 (UniProt Q9UKW4)
inactive: alvocidib -0.305 | Tubastatin A -0.202 | [1] 0.032 | defactinib -0.295 | [2] 0.053 | encorafenib 0 | [3] 0.049 | alisertib -0.004 | [4] 0.054 | gefitinib 0.036

UPF3A (UniProt Q9H1J1)
inactive: alvocidib 0.004 | Tubastatin A 0.116 | [1] 0.07 | encorafenib 0.019 | [3] -0.048 | [4] -0.041

VDAC1 (UniProt P21796)
inactive: alvocidib 0.017 | Tubastatin A 0.042 | [1] 0 | defactinib -0.007 | [2] 0.044 | encorafenib -0.003 | [3] -0.041 | alisertib -0.011 | [4] 0.019 | gefitinib 0.005

USP1 (UniProt O94782)
inactive: alvocidib 0.024 | Tubastatin A -0.04 | [1] 0.042 | defactinib 0.007 | [2] -0.002 | encorafenib -0.017 | [3] 0.013 | alisertib -0.021 | [4] -0.038 | gefitinib -0.002

USP12 (UniProt O75317)
inactive: alvocidib -0.127 | Tubastatin A 0.037 | [1] 0.07 | defactinib -0.13 | encorafenib 0.111 | [3] -0.046 | alisertib 0.13 | [4] 0.028 | gefitinib 0.155

UXS1 isoform 2 (UniProt Q8NBZ7)
inactive: alvocidib -0.001 | Tubastatin A 0.041 | [1] -0.071 | defactinib 0.059 | [2] 0.162 | encorafenib 0.046 | [3] 0.023 | [4] -0.018

VANGL2 (UniProt Q9ULK5)
inactive: alvocidib -0.055 | Tubastatin A -0.093 | [1] 0 | [2] 0.029 | [4] 0.065

USF1 (UniProt P22415)
inactive: alvocidib -0.062 | Tubastatin A 0.02 | [1] 0.13 | defactinib 0.071 | [2] 0.054 | encorafenib 0.006 | [3] -0.002 | alisertib -0.008 | [4] 0.071 | gefitinib 0.106

URB2 (UniProt Q14146)
inactive: alvocidib -0.23 | Tubastatin A -0.12 | defactinib 0.053 | [2] -0.052 | encorafenib 0.135 | [3] -0.295 | alisertib 0.085 | [4] 0.021 | gefitinib -0.181

VHL (UniProt P40337)
inactive: alvocidib -0.06 | Tubastatin A -0.117 | [1] -0.009 | defactinib -0.034 | [2] -0.047 | encorafenib 0.143 | [3] -0.047 | alisertib 0.05 | gefitinib -0.029

ULBP2 (UniProt Q9BZM5)
inactive: alvocidib -0.188 | Tubastatin A 0.013 | [1] -0.003 | defactinib -0.028 | [2] -0.033 | encorafenib 0.032 | [3] -0.037 | [4] 0.038

UPRT (UniProt Q96BW1)
inactive: alvocidib -0.016 | Tubastatin A -0.01 | [1] -0.022 | defactinib 0.068 | [2] 0.023 | encorafenib 0.043 | [3] 0.063 | alisertib -0.126 | [4] -0.075 | gefitinib -0.073

UQCC3 (UniProt Q6UW78)
inactive: alvocidib -0.037 | Tubastatin A 0.219 | [1] 0.108 | defactinib -0.039 | [2] -0.041 | encorafenib -0.05 | [3] 0.036 | [4] 0.135

USP30 (UniProt Q70CQ3)
inactive: alvocidib 0.017 | Tubastatin A -0.052 | [1] 0.124 | [2] 0.277

USP22 (UniProt Q9UPT9)
inactive: alvocidib 0.102 | Tubastatin A -0.044 | [1] 0.034 | defactinib 0.017 | [2] -0.027 | encorafenib -0.007 | [3] 0.055 | alisertib 0.02 | gefitinib -0.011

UROD (UniProt P06132)
inactive: alvocidib -0.021 | Tubastatin A 0.031 | [1] 0.03 | defactinib 0 | [2] -0.016 | encorafenib -0.013 | [3] -0.06 | alisertib 0.04 | [4] -0.024 | gefitinib -0.064

VCP (UniProt P55072)
inactive: alvocidib 0.013 | Tubastatin A 0.045 | [1] -0.002 | defactinib -0.013 | [2] 0.027 | encorafenib -0.026 | [3] -0.037 | alisertib -0.002 | [4] -0.007 | gefitinib -0.007

2 records picked at random from the list so far, as already listed:
UQCC3 (UniProt Q6UW78)
inactive: alvocidib -0.037 | Tubastatin A 0.219 | [1] 0.108 | defactinib -0.039 | [2] -0.041 | encorafenib -0.05 | [3] 0.036 | [4] 0.135

VCP (UniProt P55072)
inactive: alvocidib 0.013 | Tubastatin A 0.045 | [1] -0.002 | defactinib -0.013 | [2] 0.027 | encorafenib -0.026 | [3] -0.037 | alisertib -0.002 | [4] -0.007 | gefitinib -0.007
